No constants are given. Whether binding was seen depends on the method and setting. Some entries that bind do so weakly or less than the wild type. For some assays here: Tags and fused reporters may be left off the sequences shown.
How the values were obtained:
[1] = target: optimized bait-PAR-Grb2, RFP-fused (UniProt P62993); assay: subcellular micropatterning (bait-prey copatterning, TIRF microscopy); live cells with bait-PAR-Grb2 micropatterns and HRas-CFP, Raf1-CFP or MEK1-GFP (Figure S2); EGF stimulation named for Raf1 only
[2] = target: optimized bait-PAR-Grb2, RFP-fused (UniProt P62993); assay: subcellular micropatterning (bait-prey copatterning, TIRF microscopy); competition in live HeLa cells: bait-PAR-Grb2-RFP and Gab1-GFP on anti-HA patterns, cyclo(YpVNFΦrpPRR) added to the cells (100 μM over time; dose-response); bait-normalized contrast set between 0 and 100%

Amino acid sequences for entries named in this document (tags omitted).
UniProt P62993: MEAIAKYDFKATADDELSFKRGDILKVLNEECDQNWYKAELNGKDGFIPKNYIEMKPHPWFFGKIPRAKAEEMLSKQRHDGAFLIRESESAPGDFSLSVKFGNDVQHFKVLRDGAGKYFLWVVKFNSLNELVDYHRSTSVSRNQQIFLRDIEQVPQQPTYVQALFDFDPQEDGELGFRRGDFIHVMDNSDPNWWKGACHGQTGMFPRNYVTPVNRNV

## MEK1 (mitogen-activated protein kinase kinase 1), GFP-fused (from UniProt Q02750 1-393)
[1]
  binding: no binding

B1: Grb2-associated-binding protein 1 (Gab1), GFP-fused (protein, UniProt Q13480 1-694)
chain: MSGGEVVCSGWLRKSPPEKKLKRYAWKRRWFVLRSGRLTGDPDVLEYYKNDHAKKPIRIIDLNLCQQVDAGLTFNKKEFENSYIFDINTIDRIFYLVADSEEEMNKWVRCICDICGFNPTEEDPVKPPGSSLQAPADLPLAINTAPPSTQADSSSATLPPPYQLINVPPHLETLGIQEDPQDYLLLINCQSKKPEPTRTHADSAKSTSSETDCNDNVPSHKNPASSQSKHGMNGFFQQQMIYDSPPSRAPSASVDSSLYNLPRSYSHDVLPKVSPSSTEADGELYVFNTPSGTSSVETQMRHVSISYDIPPTPGNTYQIPRTFPEGTLGQTSKLDTIPDIPPPRPPKPHPAHDRSPVETCSIPRTASDTDSSYCIPTAGMSPSRSNTISTVDLNKLRKDASSQDCYDIPRAFPSDRSSSLEGFHNHFKVKNVLTVGSVSSEELDENYVPMNPNSPPRQHSSSFTEPIQEANYVPMTPGTFDFSSFGMQVPPPAHMGFRSSPKTPPRRPVPVADCEPPPVDRNLKPDRKVKPAPLEIKPLPEWEELQAPVRSPITRSFARDSSRFPMSPRPDSVHSTTSSSDSHDSEENYVPMNPNLSSEDPNLFGSNSLDGGSSPMIKPKGDKQVEYLDLDLDSGKSTPPRKQKSSGSGSSVADERVDYVVVDQQKTLALKSTREAWTDGRQSTESETPAKSVK
[2]
  binding: binds

Source: article PMC8630788
